PubChem BioAssay AID1259254, NCATS, 2017

Purpose: 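Genome-wide screen for genes that prevent DNA re-replication in cancer cells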 (primary screen)
System: human HCT116 colorectal cancer cells
Reagents: single siRNA against human genes
Timing: 3 days
Detection: 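Nuclei stained with Hoechst and imaged; cell-cycle phase assigned by DNA content; G2 share scaled per plate, non-targeting siRNA 0%, GMNN siRNA 100%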
Reading the numbers: G2 robust z-score and G2 cells, % of GMNN control: higher = more G2 cells, more excess DNA replication; raw share of cells in G2: higher = larger share of cells with G2 DNA content
Call rule: 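An siRNA counts as active if its G2 robust z-score lies at least 5 MADs above the screen median; here such calls match roughly 38% of GMNN control or more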
This is an unselected part of about 59,000 reagents tested. About 1,550 of all reagents (2.6%) were called active. 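G2 share is only a proxy for re-replication; each gene was hit by three separate siRNAs, and active genes were retested.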 Raw values vary from plate to plate and are shown uncorrected. The record does not give: the amount of reagent.

Gene	PubChem SID	G2 robust z-score	G2 cells, % of GMNN control	raw share of cells in G2 (%)	call
PRX (periaxin)	SID160746654	-0.466	-0.31	4.22	inactive
PRX (periaxin)	SID160746655	-0.491	-0.488	4.23	inactive
PRX (periaxin)	SID160746656	-1.09	-4.7	1.54	inactive
MACROH2A1 (macroH2A.1 histone)	SID160722493	-0.493	-0.499	5.1	inactive
MACROH2A1 (macroH2A.1 histone)	SID160722494	-0.357	0.458	4.13	inactive
MACROH2A1 (macroH2A.1 histone)	SID160722495	0.159	4.09	4.89	inactive
ZFYVE16 (zinc finger FYVE-type containing 16)	SID160723024	0.0926	3.62	4.73	inactive
ZFYVE16 (zinc finger FYVE-type containing 16)	SID160723025	-1.02	-4.24	4.1	inactive
ZFYVE16 (zinc finger FYVE-type containing 16)	SID160723026	0.688	7.81	6.61	inactive
LSM14B (LSM family member 14B)	SID160758894	-1.06	-4.52	2.31	inactive
LSM14B (LSM family member 14B)	SID160758895	-0.401	0.146	2.96	inactive
LSM14B (LSM family member 14B)	SID160758896	-0.3	0.855	3.37	inactive
TMEM175 (transmembrane protein 175)	SID160752058	1.78	15.5	9.27	inactive
TMEM175 (transmembrane protein 175)	SID160752060	-0.915	-3.47	2.43	inactive
TMEM175 (transmembrane protein 175)	SID160752061	1.66	14.6	6.85	inactive
COA7 (cytochrome c oxidase assembly factor 7)	SID160748315	-0.185	1.66	5.31	inactive
COA7 (cytochrome c oxidase assembly factor 7)	SID160748316	0.0196	3.11	6	inactive
COA7 (cytochrome c oxidase assembly factor 7)	SID160748317	2.7	22	8.49	inactive
UACA	SID160742878	-0.834	-2.9	3.41	inactive
UACA	SID160742879	-0.823	-2.83	2.97	inactive
UACA	SID160742880	-0.544	-0.858	2.86	inactive
MYPOP (Myb related transcription factor, partner of profilin)	SID160764207	-0.299	0.862	4.28	inactive
MYPOP (Myb related transcription factor, partner of profilin)	SID160764208	0.0851	3.57	4.82	inactive
MYPOP (Myb related transcription factor, partner of profilin)	SID160764210	-1.2	-5.47	1.99	inactive
DRC5 (dynein regulatory complex subunit 5)	SID160761072	-1.17	-5.27	1.67	inactive
DRC5 (dynein regulatory complex subunit 5)	SID160761074	0.537	6.75	5.44	inactive
DRC5 (dynein regulatory complex subunit 5)	SID160761075	2.44	20.1	9.62	inactive
CPLX2 (complexin 2)	SID160724294	0.433	6.01	6.62	inactive
CPLX2 (complexin 2)	SID160724295	-0.0207	2.82	4.23	inactive
CPLX2 (complexin 2)	SID160729289	0.958	9.71	8.79	inactive
STPG2 (sperm tail PG-rich repeat containing 2)	SID160763646	0.5	6.49	6.01	inactive
STPG2 (sperm tail PG-rich repeat containing 2)	SID160763647	0.0213	3.12	4.25	inactive
STPG2 (sperm tail PG-rich repeat containing 2)	SID160763648	-0.657	-1.66	2.76	inactive
TMEM98 (transmembrane protein 98)	SID160737472	0.432	6.01	6.67	inactive
TMEM98 (transmembrane protein 98)	SID160737473	-0.132	2.04	4.82	inactive
TMEM98 (transmembrane protein 98)	SID160737474	0.05	3.32	4.46	inactive
SACK1F (scaffolding CK1 anchoring protein F)	SID160732343	0.735	8.14	6.32	inactive
SACK1F (scaffolding CK1 anchoring protein F)	SID160754879	0.0278	3.16	5.47	inactive
SACK1F (scaffolding CK1 anchoring protein F)	SID160754880	1.62	14.4	8.27	inactive
ANKRD53 (ankyrin repeat domain 53)	SID160734965	-0.801	-2.66	1.65	inactive
ANKRD53 (ankyrin repeat domain 53)	SID160749926	3.67	28.8	16.4	inactive
ANKRD53 (ankyrin repeat domain 53)	SID160749927	1.71	15	10.9	inactive
MAN2C1 (mannosidase alpha class 2C member 1)	SID160776934	-0.198	1.58	5.97	inactive
MAN2C1 (mannosidase alpha class 2C member 1)	SID160776935	0.186	4.27	4.61	inactive
MAN2C1 (mannosidase alpha class 2C member 1)	SID160776937	0.891	9.24	9.13	inactive

Sorted by “raw share of cells in G2 (%)” (highest first): some entries from above.
Gene	PubChem SID	G2 robust z-score	G2 cells, % of GMNN control	raw share of cells in G2 (%)	call
ZFYVE16 (zinc finger FYVE-type containing 16)	SID160723026	0.688	7.81	6.61	inactive
MACROH2A1 (macroH2A.1 histone)	SID160722493	-0.493	-0.499	5.1	inactive
MACROH2A1 (macroH2A.1 histone)	SID160722495	0.159	4.09	4.89	inactive
ZFYVE16 (zinc finger FYVE-type containing 16)	SID160723024	0.0926	3.62	4.73	inactive
PRX (periaxin)	SID160746655	-0.491	-0.488	4.23	inactive
PRX (periaxin)	SID160746654	-0.466	-0.31	4.22	inactive
MACROH2A1 (macroH2A.1 histone)	SID160722494	-0.357	0.458	4.13	inactive
ZFYVE16 (zinc finger FYVE-type containing 16)	SID160723025	-1.02	-4.24	4.1	inactive
LSM14B (LSM family member 14B)	SID160758895	-0.401	0.146	2.96	inactive
LSM14B (LSM family member 14B)	SID160758894	-1.06	-4.52	2.31	inactive
PRX (periaxin)	SID160746656	-1.09	-4.7	1.54	inactive

Next reagents:
Gene	PubChem SID	G2 robust z-score	G2 cells, % of GMNN control	raw share of cells in G2 (%)	call
EVX2 (even-skipped homeobox 2)	SID160731114	0.235	4.62	7.9	inactive
EVX2 (even-skipped homeobox 2)	SID160764761	3.71	29.1	16.3	inactive
EVX2 (even-skipped homeobox 2)	SID160764762	-0.909	-3.43	3.03	inactive
PUM3 (pumilio RNA binding family member 3)	SID160723476	-0.358	0.446	5.53	inactive
PUM3 (pumilio RNA binding family member 3)	SID160723477	0.793	8.55	7.51	inactive
PUM3 (pumilio RNA binding family member 3)	SID160723478	-0.726	-2.14	2.62	inactive
OSTN (osteocrin)	SID160764823	0.128	3.87	5.32	inactive
OSTN (osteocrin)	SID160764824	3.11	24.8	14.1	inactive
OSTN (osteocrin)	SID160764825	-0.21	1.49	4.79	inactive
CD300LF (CD300 molecule like family member f)	SID160758399	-1.17	-5.24	2.78	inactive
CD300LF (CD300 molecule like family member f)	SID160758400	-0.442	-0.144	4.64	inactive
CD300LF (CD300 molecule like family member f)	SID160758401	-1.33	-6.41	2.9	inactive
CENPBD1P (CENPB DNA-binding domain containing 1, pseudogene)	SID160754376	2.73	22.2	13.5	inactive
CENPBD1P (CENPB DNA-binding domain containing 1, pseudogene)	SID160754377	-0.24	1.28	3.4	inactive
CENPBD1P (CENPB DNA-binding domain containing 1, pseudogene)	SID160754379	0.0943	3.63	4.08	inactive
GNGT1 (G protein subunit gamma transducin 1)	SID160772291	-0.616	-1.36	3.17	inactive
GNGT1 (G protein subunit gamma transducin 1)	SID160772301	-0.194	1.6	5.87	inactive
GNGT1 (G protein subunit gamma transducin 1)	SID160772308	-1.18	-5.32	3.31	inactive
GCNT2P1 (GCNT2 pseudogene 1)	SID160769197	0.716	8	6.68	inactive
GCNT2P1 (GCNT2 pseudogene 1)	SID160769198	0.897	9.28	6.61	inactive
GCNT2P1 (GCNT2 pseudogene 1)	SID160769199	2.83	22.9	9.82	inactive
RPS24P4 (ribosomal protein S24 pseudogene 4)	SID160772586	-0.0524	2.6	4.92	inactive
RPS24P4 (ribosomal protein S24 pseudogene 4)	SID160772587	-0.67	-1.75	2.75	inactive
RPS24P4 (ribosomal protein S24 pseudogene 4)	SID160772588	0.191	4.31	4.79	inactive
